{"source": "paper PMC5996148", "test_in_all_cases": "protein microarray (ProtoArray v5.0), streptavidin-Alexa Fluor 647", "conditions_in_all_cases": "3'-biotin; 20 mM Tris (pH 7.5), 5 mM MgCl2, 100 mM KCl, 0.1% Tween-20, A/T-rich and random oligonucleotide blockers; temperature not stated; high values mean tight binding", "key": {"LETM2 (human)": {"tested_on": "LETM2 (human)"}, "LGALS3 (human)": {"tested_on": "LGALS3 (human)"}, "LILRB1 (human)": {"tested_on": "LILRB1 (human)"}, "LIMD1 (human)": {"tested_on": "LIMD1 (human)"}, "LIMS2": {"molecular_target": "T1, LIMS2 (UniProt Q7Z4I7)", "T1 sequence": "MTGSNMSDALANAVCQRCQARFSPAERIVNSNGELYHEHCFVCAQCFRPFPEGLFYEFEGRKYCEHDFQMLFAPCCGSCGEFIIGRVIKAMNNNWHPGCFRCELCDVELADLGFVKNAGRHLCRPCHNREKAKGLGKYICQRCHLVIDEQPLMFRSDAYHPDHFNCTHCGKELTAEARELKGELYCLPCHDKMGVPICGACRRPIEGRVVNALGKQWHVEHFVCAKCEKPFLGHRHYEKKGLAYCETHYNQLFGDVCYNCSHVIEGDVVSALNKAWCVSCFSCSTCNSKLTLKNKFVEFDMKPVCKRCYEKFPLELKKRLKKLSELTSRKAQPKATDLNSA"}, "LMX1A (human)": {"tested_on": "LMX1A (human)"}, "LOC113386 (human)": {"tested_on": "LOC113386 (human)"}, "LOC124446 (human)": {"tested_on": "LOC124446 (human)"}, "LOC144631 (human)": {"tested_on": "LOC144631 (human)"}, "LOC149267 (human)": {"tested_on": "LOC149267 (human)"}}, "note": "“And” between values parts separate entries of the source, which are not always exact repeats. Equal entries are not always repeated. The list shows a part of the results. For some of these results: The source does not settle which construct or isoform was used."}
{"sequence": "GGGGACAGGGGTATGGGGAGGGG [G4-3 biotinylated (CtG)]", "values": [{"measurement": "binding signal", "setting": "LETM2 (human)", "result": -0.334, "unit": "z-score"}, {"measurement": "binding signal", "setting": "LGALS3 (human)", "result": "-0.324 z-score and -0.331 z-score"}, {"measurement": "binding signal", "setting": "LILRB1 (human)", "result": -0.322, "unit": "z-score"}, {"measurement": "binding signal", "setting": "LIMD1 (human)", "result": -0.333, "unit": "z-score"}, {"measurement": "binding signal", "setting": "LIMS2", "result": 3.01, "unit": "z-score"}, {"measurement": "binding signal", "setting": "LMX1A (human)", "result": -0.34, "unit": "z-score"}, {"measurement": "binding signal", "setting": "LOC113386 (human)", "result": -0.318, "unit": "z-score"}, {"measurement": "binding signal", "setting": "LOC124446 (human)", "result": -0.307, "unit": "z-score"}, {"measurement": "binding signal", "setting": "LOC144631 (human)", "result": -0.318, "unit": "z-score"}, {"measurement": "binding signal", "setting": "LOC149267 (human)", "result": -0.308, "unit": "z-score"}]}
